In article PMC6039025:
Results are given in words; binding and its absence hold for the method and conditions named. Some results given as binding are weak or reduced against the parent protein; the word gives no strength. Sequences can lack the tags named with a protein.

T1: Smc4-L1335A, 3xStrepTagII-tagged (S. cerevisiae) (UniProt Q12267)
T1 sequence: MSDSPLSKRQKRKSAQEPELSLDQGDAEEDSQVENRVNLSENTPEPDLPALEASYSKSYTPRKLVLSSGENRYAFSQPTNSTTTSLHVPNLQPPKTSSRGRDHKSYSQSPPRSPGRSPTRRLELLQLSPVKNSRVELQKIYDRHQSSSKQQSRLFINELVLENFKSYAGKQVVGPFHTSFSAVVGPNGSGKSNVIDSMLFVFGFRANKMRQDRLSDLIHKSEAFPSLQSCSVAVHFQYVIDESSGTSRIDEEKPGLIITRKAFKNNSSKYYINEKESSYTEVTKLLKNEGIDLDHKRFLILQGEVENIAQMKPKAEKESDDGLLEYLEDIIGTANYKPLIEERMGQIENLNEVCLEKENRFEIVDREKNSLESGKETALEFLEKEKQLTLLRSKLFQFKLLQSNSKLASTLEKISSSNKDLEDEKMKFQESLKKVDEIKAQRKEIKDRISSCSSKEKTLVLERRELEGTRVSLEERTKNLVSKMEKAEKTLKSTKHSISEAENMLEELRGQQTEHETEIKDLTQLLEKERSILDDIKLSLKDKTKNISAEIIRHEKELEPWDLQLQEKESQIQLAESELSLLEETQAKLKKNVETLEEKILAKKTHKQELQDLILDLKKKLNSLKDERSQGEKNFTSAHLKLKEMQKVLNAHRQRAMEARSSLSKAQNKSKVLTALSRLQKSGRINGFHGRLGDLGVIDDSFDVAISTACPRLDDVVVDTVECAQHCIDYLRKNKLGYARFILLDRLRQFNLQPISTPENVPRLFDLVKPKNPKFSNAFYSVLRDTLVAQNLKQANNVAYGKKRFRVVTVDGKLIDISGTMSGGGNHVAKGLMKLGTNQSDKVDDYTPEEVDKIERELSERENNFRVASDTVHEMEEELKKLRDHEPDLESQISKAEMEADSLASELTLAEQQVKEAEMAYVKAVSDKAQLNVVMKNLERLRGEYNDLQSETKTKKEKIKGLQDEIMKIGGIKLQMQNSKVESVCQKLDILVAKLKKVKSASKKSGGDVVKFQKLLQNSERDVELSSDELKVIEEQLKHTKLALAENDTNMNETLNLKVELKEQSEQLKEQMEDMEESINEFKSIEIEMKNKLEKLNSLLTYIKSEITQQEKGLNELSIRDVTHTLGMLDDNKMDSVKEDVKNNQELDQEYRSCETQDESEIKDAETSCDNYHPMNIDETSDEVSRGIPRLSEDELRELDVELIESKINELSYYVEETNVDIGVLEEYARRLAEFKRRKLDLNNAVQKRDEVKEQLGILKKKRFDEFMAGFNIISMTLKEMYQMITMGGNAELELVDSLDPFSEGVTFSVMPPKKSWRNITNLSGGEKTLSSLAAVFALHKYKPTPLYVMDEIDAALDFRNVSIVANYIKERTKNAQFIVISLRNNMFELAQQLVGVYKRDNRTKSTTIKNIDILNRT

B1: Smc2 (protein, UniProt P38989 1-1170)
chain: MKVEELIIDGFKSYATRTVITDWDPQFNAITGLNGSGKSNILDAICFVLGIASMSTVRASSLQDLIYKRGQAGVTKASVTIVFDNTDKSNSPIGFTNSPQISVTRQVVLGGTSKYLINGHRAPQQSVLQLFQSVQLNINNPNFLIMQGKITKVLNMKPSEILSLIEEAAGTKMFEDRREKAERTMSKKETKLQENRTLLTEEIEPKLEKLRNEKRMFLEFQSTQTDLEKTERIVVSYEYYNIKHKHTSIRETLENGETRMKMLNEFVKKTSEEIDSLNEDVEEIKLQKEKELHKEGTISKLENKENGLLNEISRLKTSLSIKVENLNDTTEKSKALESEIASSSAKLIEKKSAYANTEKDYKMVQEQLSKQRDLYKRKEELVSTLTTGISSTGAADGGYNAQLAKAKTELNEVSLAIKKSSMKMELLKKELLTIEPKLKEATKDNELNVKHVKQCQETCDKLRARLVEYGFDPSRIKDLKQREDKLKSHYYQTCKNSEYLKRRVTNLEFNYTKPYPNFEASFVHGVVGQLFQIDNDNIRYATALQTCAGGRLFNVVVQDSQTATQLLERGRLRKRVTIIPLDKIYTRPISSQVLDLAKKIAPGKVELAINLIRFDESITKAMEFIFGNSLICEDPETAKKITFHPKIRARSITLQGDVYDPEGTLSGGSRNTSESLLVDIQKYNQIQKQIETIQADLNHVTEELQTQYATSQKTKTIQSDLNLSLHKLDLAKRNLDANPSSQIIARNEEILRDIGECENEIKTKQMSLKKCQEEVSTIEKDMKEYDSDKGSKLNELKKELKLLAKELEEQESESERKYDLFQNLELETEQLSSELDSNKTLLHNHLKSIESLKLENSDLEGKIRGVEDDLVTVQTELNEEKKRLMDIDDELNELETLIKKKQDEKKSSELELQKLVHDLNKYKSNTNNMEKIIEDLRQKHEFLEDFDLVRNIVKQNEGIDLDTYRERSKQLNEKFQELRKKVNPNIMNMIENVEKKEAALKTMIKTIEKDKMKIQETISKLNEYKRETLVKTWEKVTLDFGNIFADLLPNSFAKLVPCEGKDVTQGLEVKVKLGNIWKESLIELSGGQRSLIALSLIMALLQFRPAPMYILDEVDAALDLSHTQNIGHLIKTRFKGSQFIVVSLKEGMFANANRVFRTRFQDGTSVVSIM
B2: Brn1-3xHA-12xHIS (protein, UniProt P38170 1-754)
chain: MTTQLRYENNDDDERVEYNLFTNRSTMMANFEEWIKMATDNKINSRNSWNFALIDYFYDLDVLKDGENNINFQKASATLDGCIKIYSSRVDSVTTETGKLLSGLAQRKTNGASNGDDSNGGNGEGLGGDSDEANIEIDPLTGMPISNDPDVNNTRRRVYNRVLETTLVEFETIKMKELDQELIIDPLFKKALVDFDEGGAKSLLLNTLNIDNTARVIFDASIKDTQNVGQGKLQRKEEELIERDSLVDDENEPSQSLISTRNDSTVNDSVISAPSMEDEILSLGMDFIKFDQIAVCEISGSIEQLRNVVEDINQAKDFIENVNNRFDNFLTEEELQAAVPDNAEDDSDGFDMGMQQELCYPDENHDNTSHDEQDDDNVNSTTGSIFEKDLMAYFDENLNRNWRGREHWKVRNFKKANLVNKESDLLEETRTTIGDTTDKNTTDDKSMDTKKKHKQKKVLEIDFFKTDDSFEDKVFASKGRTKIDMPIKNRKNDTHYLLPDDFHFSTDRITRLFIKPGQKMSLFSHRKHTRGDVSSGLFEKSTVSANHSNNDIPTIADEHFWADNYERKEQEEKEKEQSKEVGDVVGGALDNPFEDDMDGVDFNQAFEGTDDNEEASVKLDLQDDEDHKFPIRENKVTYSRVSKKVDVRRLKKNVWRSINNLIQEHDSRKNREQSSNDSETHTEDESTKELKFSDIIQGISKMYSDDTLKDISTSFCFICLLHLANEHGLQITHTENYNDLIVNYEDLATTQAAS
B3: Ycs4 (protein, UniProt Q06156 1-1176)
chain: MSGFSLSEYLTKFQTTDRESYPRLQDPSRELNVIIDQLAVSPEQIDASPDSLEALIDLCHDFPHLTPKLQTQLSYLISSSLSNLSKDIKANLSSNVNFTEIGGLIPQWKRHLEEYGYLIQVLLTFLQDELHKVSSQSTNLNRSAKNSKNDSANVELFKRDCNQMENLLESITKLLEINLSKIFQTTPEKDLFIGLFTRPLFVLLEIEPVTKVSSLKMFIQRILAMCVKNHGQSSSIQSSLMTNLTYFLHLSVFNAELLKLLNDEYNYPQLTEDILKEISTRVFNAKDTTGPKAISNFLIKLSELSPGIMLRQMNLVITLLNNSSITLRCSVVEACGNIVAELAQDPQTMEHYKQQIAVLIELLEERFQDSNPYVRTKAIQGCSKICDLSSKFNKSKAKFTSLAVRSLQDRSSLVRRNSVKLLSKLLLKHPFKAIHGSQLRLSEWEEYLKGSESQLNSTLKKVESQETLNDTIERSLIEEEVEQDEGQCRTELEGSFNKSAELSRIENEVENINATNTSVLMKLKLMIVYYKDAISFIKEIHKSIELISNLLFSKNRNEVLESMDFLVLADAFDIELSEFGIKKMLHLVWMKGTNDEGTSISVHLIECYKQLFLTAPDSCNMQEKAAHIAKNLINLSIGASIADLASLEQLLGMMYEQKLIDQHVINILWAIYNSASKASMQKEQNVNNRDSEKGFSKEQIHGSIIILGMLSLADNEIALKGLESLLNIGLGAVGLKDLTLCRYSCLALERMVPKRSTIITKAINQELEDVAVKKLYAIIINYTKDNEYYPMCEQALSALFTISSKPDILATDLIREKTMMTFGKPEEEDSILSLEQSSRVVSLSQLLFIVGQVAIKTLVYLEKCEAEFKKRKIEAETRNGKVKNQGADVTNTTQDNGGDKELEMIGGTNEDDFTDAIQFVKENELLFGEKSILGKFCPIVEEIVSNSSRFSDPMLQRTATLCLEKLMCLSSKYCEKSLPLLITVMEKSPDPTIRSNAVLGLGDMAVCFNNLVDENTDYLYRRLHDENLMVQRTCLMTVTFLILAGQVKVKGQLGEMAKCLDNPDQGISDMCRLFFTELASKDNAIYNGFIDIFSNLSSDDLLGKESFKKIIKFLLTFIDKERHQKQLNEKLVGRLRKCETQKQWDDIAFVLNNLPYKNEDVTALLEQGFKVVSAKE
B4: Ycg1-3xFLAG-9xHIS (protein, UniProt Q06680 1-1035)
chain: MQDPDGIDINTKIFNSVAEVFQKAQGSYAGHRKHIAVLKKIQSKAVEQGYEDAFNFWFDKLVTKILPLKKNEIIGDRIVKLVAAFIASLERELILAKKQNYKLTNDEEGIFSRFVDQFIRHVLRGVESPDKNVRFRVLQLLAVIMDNIGEIDESLFNLLILSLNKRIYDREPTVRIQAVFCLTKFQDEEQTEHLTELSDNEENFEATRTLVASIQNDPSAEVRRAAMLNLINDNNTRPYILERARDVNIVNRRLVYSRILKSMGRKCFDDIEPHIFDQLIEWGLEDRELSVRNACKRLIAHDWLNALDGDLIELLEKLDVSRSSVCVKAIEALFQSRPDILSKIKFPESIWKDFTVEIAFLFRAIYLYCLDNNITEMLEENFPEASKLSEHLNHYILLRYHHNDISNDSQSHFDYNTLEFIIEQLSIAAERYDYSDEVGRRSMLTVVRNMLALTTLSEPLIKIGIRVMKSLSINEKDFVTMAIEIINDIRDDDIEKQEQEEKIKSKKINRRNETSVDEEDENGTHNDEVNEDEEDDNISSFHSAVENLVQGNGNVSESDIINNLPPEKEASSATIVLCLTRSSYMLELVNTPLTENILIASLMDTLITPAVRNTAPNIRELGVKNLGLCCLLDVKLAIDNMYILGMCVSKGNASLKYIALQVIVDIFSVHGNTVVDGEGKVDSISLHKIFYKVLKNNGLPECQVIAAEGLCKLFLADVFTDDDLFETLVLSYFSPINSSNEALVQAFAFCIPVYCFSHPAHQQRMSRTAADILLRLCVLWDDLQSSVIPEVDREAMLKPNIIFQQLLFWTDPRNLVNQTGSTKKDTVQLTFLIDVLKIYAQIEKKEIKKMIITNINAIFLSSEQDYSTLKELLEYSDDIAENDNLDNVSKNALDKLRNNLNSLIEEINERSETQTKDENNTANDQYSSILGNSFNKSSNDTIEHAADITDGNNTELTKTTVNISAVDNTTEQSNSRKRTRSEAEQIDTSKNLENMSIQDTSTVAKNVSFVLPDEKSDAMSIDEEDKDSESFSEVC

Molecular target: T1, Smc4-L1335A, 3xStrepTagII-tagged (S. cerevisiae)
Assay: tandem affinity co-purification (Ni-NTA, Strep-Trap) + SEC; five condensin subunits co-overexpressed in yeast; extract in 500 mM NaCl, 10 mM Tris-HCl pH 8.0, 10% glycerol; Ni-NTA (His tags on Brn1 and Ycg1), then Strep-Trap HP (3xStrepTagII on Smc4), then Superose 6 10/300 in 200 mM NaCl, 50 mM Tris-HCl pH 8.0; subunits seen by SDS-PAGE and Coomassie staining

binding, binds:
B1, B2, B3, B4
